The results in this text go back to US20130072665A1.

These are yes or no findings as the source states them, for the method shown. Binding can be weak; no strength is given.

B1: 28D6 (antibody, V domains shown)
VH: QVQLVESGGGVVQPGRSLRLSCAASGFTFSSFGMHWVRQAPGKGLEWVALIWNDGSNKYYADSVKGRFTISRDNSKNTLYLQMNSLRAEDTAVYYCARAIAALYYYYGMDVWGQGTTVTVSS
VL: QSVLTQPPTVSAAPGQKVTISCSGSSSNIGNNFVSWYQQLPGTAPKLLIYDYNKRPSGIPDRFSGSKSGTSATLGITGLQTGDEADYYCGTWDSSLSGYVFGTGTRVTVL
B2: 22E2 (antibody, V domains shown)
VH: QVQLVESGGGVVQPGRSLRLSCAASGFTFSSFGMHWVRQAPGKGLEWVALIWNDGSNKYYADSVKGRFTISRDNSKNTLYLQMNSLRAEDTAVYYCARAIAALYYYYGMDVWGQGTTVTVSS
VL: QSVLTQPPSVSAAPGQKVTISCSGSSSNIGNNFVSWYQQLPGTAPKLLIYDYNKRPSGIPDRFSGSKSGTSATLGITGLQTGDEADYYCGTWDSSLSGYVFGTGTRVTVL
B3: 28B12 (antibody, V domains shown)
VH: QVQLVESGGGVVQPGRSLRLSCAASGFTFSSFGMHWVRQAPGKGLEWVALIWNDGSNKYYADSVKGRFTISRDNSKNTLYLQMNSLRAEDTAVYYCARAIAALYYYYGMDVWGHGTTVTVSS
VL: QSVLTQPPSVSAAPGQKVTISCSGSSSNIGNNFVSWYQQLPGTAPKLLIYDYNKRPSGIPDRFSGSKSGTSATLGITGLQTGDEADYYCGTWDSSLSGYVFGTGTRVTVL
B4: 27A6 (antibody, V domains shown)
VH: QVHLVESGGGVVQPGRSLRLSCAASGFTFNSFGMHWVRQAPGKGLEWVALIWSDGSDKYYADSVKGRFTISRDNSKNTLYLQMNSLRAEDTAVYYCARAIAALYYYYGMDVWGQGTTVTVSS
VL: QSVLTQPPSVSAAPGQKVTISCSGSSSNIGNNFVSWYQQFPGTAPKLLIYDYNKRPSGIPDRFSGSKSGTSATLGITGLQTGDEADYYCGTWDSSLSSYVFGTGTRVTVL
B5: 13B5 (antibody, V domains shown)
VH: EVQLLESGGGLVQPGGSLRLSCAASGFTFSSYAMSWVRQAPGKGLEWVSTISGSGGRTYYADSVKGRFTISRDNSKNTLYLQMNSLRAEDTAVYYCAKEVGSPFDYWGQGTLVTVSS
VL: QSVLTQPPSVSAAPGQKVTISCSGSNSNIGNNYVSWYQQLPGTAPKLLIYDNNKRPSGIPDRFSGSNSGTSATLGITGLQTGDEADYYCGTWDSSLSAVVFGGGTKLTVL
B6: 20D10 (antibody, V domains shown)
VH: QIQLVQSGAEVKKPGASVKVSCKASGYPLTSYGISWVRQAPGQGLEWMGWISAYNGNTNYAQKVQGSVTMTTDTSTSTVYMELRSLRSDDTAVYYCARGYGMDVWGQGTTVTVSS
VL: QSALTQPASVSGSPGQSITISCTGTSSDVGGYNSVSWYQQYPGKPPKLKIYEVSNRPSGVSNRFSGSKSGNTASLTISGLQAEDEADYFCSSYTSTSMVFGGGTKLTVL
B7: 30B9 (antibody, V domains shown)
VH: QVQLVQSGAEVKKPGASVKVSCKASGYPLTSYGISWVRQAPGQGLEWMGWISAYNGNTNYAQKVQGRVTMTTDTSTSTVYMELRSLRSDDTAVYYCARGYGMDVWGQGTTVTVSS
VL: QSALTQPASVSGSPGQSITISCTGTSSDVGGYNSVSWYQQHPGKPPKLMIYEVSNRPSGVSNRFSGSKSGNTASLTISGLQAEDEADYFCSSYTSTSMVFGGGTKLTVL
B8: 19H9 (antibody, V domains shown)
VH: QVQLVQSGAEVKKPGASVKVSCKASGYALTSYGISWVRQAPGQGLEWMGWISAYNGNTNYAQKVQGRVTMTTDTSTSTVYMELRSLRSDDTAVYYCARGYGMDVWGQGTTVTVSS
VL: QSALTQPASVSGSPGQSITISCTGTNSDVGGYNSVSWYQQHPGKPPKLMIYEVSNRPSGISNRFSGSKSGNTASLTISGLQAEDEADYFCSSYTSTSMVFGGGTKLTVL
B9: 27E7 (antibody, V domains shown)
VH: QVQLVQSGAEVKKPGASLKVSCKASGYSLTSYGISWVRQAPGQGLEWMGWISAYNGNTNYAQKVQGRVTMTTDTSTSTVYMEVRSLRSDDTAVYYCARGYGMDVWGQGTTVTVSS
VL: QSALTQPASVSGSPGQSITISCTGTSSDVGGYNSVSWYQQHPGKPPKLMIYEVSNRPSGVSNRFSGSKSGNTASLTISGLQAEDEADYFCSSYTSTSMVFGGGTKLTVL
B10: 31D1 (antibody, V domains shown)
VH: QIQLVQSGAEVKKPGASVKVSCKASGYTLTSYGISWVRQAPGQGLEWMGWISFYNGNTNYAQKVQGRVTMTTDTSTSTVYMELRSLRSDDTAVYFCARGYGMDVWGQGTTVTVSS
VL: QSALTQPASVSGSPGQSITISCTGTSSDVGGYNSVSWYQQHPGKPPKLMIYEVSNRPSGVSNRFSGSKSGNTASLTISGLQAEDEADYFCSSYTSTSMVFGGGTKLAVL
B11: 3B6 (antibody, V domains shown)
VH: QVQLVQSGAEVKKPGASVKVSCKASGYTFTSYGISWVRQAPGQGLEWMGWISTYNGNTNYAQKVQGRVTMTTDTSTSTAYMELRSLRSDDTAVYYCARGYTRDYWGQGTLVTVSS
VL: QPVLTQPLFASASLGASVTLTCTLSSGYSSYEVDWYQQRPGKGPRFVMRVDTGGIVGSKGEGIPDRFSVLGSGLNRYLTIKNIQEEDESDYHCGADHGSGTNFVVVFGGGTKLTVL
B12: 26H5 (antibody, V domains shown)
VH: QVQLVQSGAEVKKPGASVKVSCKASGYTLTSYGISWVRQAPGQGLEWMGWISFYNGNTNYAQKVQGRVTMTTDTSTSTVYMELRSLRSDDTAVYYCARGYGMDVWGQGTTVTVSS
VL: QSALTQPASVSGSPGQSITISCTGTSSDVGGYNSVSWYQQHPGKPPKLMIYEVSNRPSGVSIRFSGSKSGNTASLTISGLQAEDEADYFCSSYTSTSMVFGGGTKLTVL
B13: 23G1 (antibody, V domains shown)
VH: QVQLVQSGAEVKKPGASVKVSCKASGYTLTSYGISWVRQAPGQGLEWMGWVSFYNGNTNYAQKLQGRGTMTTDPSTSTAYMELRSLRSDDTAVYYCARGYGMDVWGQGTTVTVSS
VL: QSALTQPASVSGSPGQSITISCTGTSSDVGGYNSVSWYQQHPGKAPKLMIYEVTNRPSGVSNRFSGSKSGNTASLTISGLQAEDEADYYCNSYTSTSMVFGGGTKLTVL
B14: 27H5 (antibody, V domains shown)
VH: QVQLVQSGAEVKRPGASVKVSCKASGYTLTSYGISWVRQAPGQGLEWMGWISVYNGNTNYAQKVQGRVTMTTDTSTSTVYMELRSLSSDDTAVYYCARGYGMDVWGQGTTVTVSS
VL: QSALTQPASVSGSPGQSITISCTGTSSDVGGYNSVSWYQQHPGKPPKLMIYEVSNRPSGVSIRFSGSKSGNTASLTISGLQAEDEADYFCSSYTSTSMVFGGGTKLTVL
B15: 17C2.1 (antibody, V domains shown)
VH: QVQLVQSGAEVKKPGASVKVSCKASGYSFTSYGISWVRQAPGQGLEWMGWVSAYNGNTNYAQKFQGRVTMTTDTSTSTAYMELRSLRSDDTAVYYCARGYVMDVWGQGTTVTVSS
VL: QSALTQPASVFGSPGQSITISCTGTSSDVGAYNSVSWYQQHPGKAPKRMIYEVSNRPSGVSNRFSGSKSGNTASLTISGLQAEDEADYYCSSYTSTNMVFGGGTKLTVL
B16: 26E10.1 (antibody, V domains shown)
VH: QVQLVQSGAEVKKPGASVKVSCKASGYTLTSYGISWVRQAPGQGLEWMGWVSFYNGNTNYAQKLQGRGTMTTDPSTSTAYMELRSLRSDDTAVYYCARGYGMDVWGQGTTVTVSS
VL: QSALTQPASVSGSPGQSITISCTGTSSDVGGYNSVSWYQQHPGKAPKLMIYEVSNRPSGVFNRFSGSKSGNTASLTISGLQAEDEADYYCNSYTSTSMVFGGGTKLTVL
B17: 23B5 (antibody, V domains shown)
VH: EVQLLESGGGLVQPGGSLRLSCAASGFTFSSYAMNWVRQAPGKGLEWVSTISGSGDNTYYADSVKGRFTISRDNSKNTLYLQMNSLRAEDTAVYYCAKKFVLMVYAMLDYWGQGTLVTVSS
VL: DILMTQSPSSLSASVGDRVTITCRASQSISSYLNWYQQKPGKAPKVLIYAASSLQSGVPSRFSGSGSGTDFTLTINSLQPEDFATYYCQQSYSSPITFGQGTRLEIK
B18: 25G4 (antibody, V domains shown)
VH: EVQLLESGGGLVQPGGSLRLSCAASGFTFSSYAMNWVRQAPGKGLEWVSTISGSGGNTYYADSVKGRFTISRDNSKNTLYLQMNSLRAEDTAVYYCAKKFVLMVYAMLDYWGQGTLVTVSS
VL: DIQMTQSPSSLSASVGDRVTITCRASQSISIYLNWYQQKPGKAPYLLIYAAASLQSGVPSRFSGSGSGTDFTLTISSLQPEDFATYYCQQSYSAPITFGQGTRLEIK
B19: 27B2 (antibody, V domains shown)
VH: QVQLQESGPGLVKPSQTLSLTCTVSGGSISSGGYYWSWIRQHPGKGLEWIGYIYNSGSTYYNPSLKSRVTISVDTSKNQFSLKLSSVTAADTAVYYCAREDTAMVPYFDYWGQGTLVTVSS
VL: QSVLTQPPSVSGAPGQRVTISCTGSSSNIGAHYDVHWYQQVPGTAPKLLIYGNTYRPSGVPDRFSGSKSGTSASLAITGLQAEDEADYYCQSYDNSLSGVVFGGGTKLTVL

One test addresses human PCSK9 (proprotein convertase subtilisin kexin type 9) (human). The test is described as follows: domain binding ELISA (coated antibody captures the PCSK9 form; OD650). (An ELISA detects its analyte on a solid surface through an enzyme-linked reagent.)
For B1, the binding entry is recorded as “binds”.
As to B2, the binding result is “binds”.
For B3, the binding result is “binds”.
Consider B4, for which the binding result was “binds”.
Take B5: the binding entry is listed as “binds”.
The same measure, in the same setting: under B6 stands “binds”.
For B7, the binding result was “binds”.
Consider B8, for which the binding result is recorded as “binds”.
For B9, the binding result is “binds”.
As for B10, the binding entry is on record as “binds”.
Take B11: the binding result is given as “binds”.
As to B12, the binding result is “binds”.
As to B13, the binding result is given as “binds”.
In the case of B14, the binding result is “binds”.
On the same count and under the same terms, under B15 stands “binds”; under B16, “binds”; under B17, “binds”.
Consider B18, for which the binding entry is listed as “binds”.

The target is the same in a further test. The test is described as follows: ELISA, supernatant on biotinylated PCSK9, pH 7.4 against pH 6.0.
For the molecule B19, the binding result was “binds”.
